These are yes or no findings as the source states them, for the method shown. For some assays here: Binding can be weak; no strength is given. Sequences can lack the tags named with a protein. For some assays here: Binding seen in cells or lysates may run through a third protein.
Columns and labels:
GST–DPF3a (human) = biological target: T1, GST–DPF3a (human) (UniProt Q92784); assay: pull-down; GST recombinant proteins immobilised on glutathione-conjugated sepharose beads, incubated with lysates of mock or transfected U2OS cells at 4°C for 2 h, western blot; only the target purified
T1 sequence: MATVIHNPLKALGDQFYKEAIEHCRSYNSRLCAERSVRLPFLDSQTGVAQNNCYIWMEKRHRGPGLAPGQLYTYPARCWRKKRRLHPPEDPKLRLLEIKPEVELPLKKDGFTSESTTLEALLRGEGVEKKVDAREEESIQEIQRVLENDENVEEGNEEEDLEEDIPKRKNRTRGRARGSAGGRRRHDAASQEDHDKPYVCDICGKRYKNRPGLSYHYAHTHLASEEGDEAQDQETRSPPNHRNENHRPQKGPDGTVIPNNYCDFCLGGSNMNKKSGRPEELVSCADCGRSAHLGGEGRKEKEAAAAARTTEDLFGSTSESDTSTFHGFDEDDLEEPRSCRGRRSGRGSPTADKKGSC

[1] = biological target: taxol-stabilized microtubules; assay: co-sedimentation; pre-cleared GST–DPF3a or GST–DPF3b incubated with 2 µM taxol-stabilized microtubules for 30 min at room temperature, centrifuged at 100,000 g for 40 min, pellet and supernatant on SDS-PAGE with Coomassie blue staining; both purified

With “endogenous α-tubulin (U2OS cells) (human (endogenous in U2OS))” as the molecule, how does the binding (GST–DPF3a (human)) read?
The binding was “no binding”.

B1: GST–DPF3a (protein, UniProt Q92784-2 1-357)
chain: MATVIHNPLKALGDQFYKEAIEHCRSYNSRLCAERSVRLPFLDSQTGVAQNNCYIWMEKRHRGPGLAPGQLYTYPARCWRKKRRLHPPEDPKLRLLEIKPEVELPLKKDGFTSESTTLEALLRGEGVEKKVDAREEESIQEIQRVLENDENVEEGNEEEDLEEDIPKRKNRTRGRARGSAGGRRRHDAASQEDHDKPYVCDICGKRYKNRPGLSYHYAHTHLASEEGDEAQDQETRSPPNHRNENHRPQKGPDGTVIPNNYCDFCLGGSNMNKKSGRPEELVSCADCGRSAHLGGEGRKEKEAAAAARTTEDLFGSTSESDTSTFHGFDEDDLEEPRSCRGRRSGRGSPTADKKGSC
Which binding [1] does the source give for B1 here?
Its binding is “binds”.
